From the supplement of paper PMC10849652
The other results are listed elsewhere or left out.

By UniProt entry, the sequences of proteins in these tests, tags left out. Where a name states a change or a piece, a line headed by the entry shows the natural chain unless it says otherwise.
UniProt P05387, whole entry, looked up: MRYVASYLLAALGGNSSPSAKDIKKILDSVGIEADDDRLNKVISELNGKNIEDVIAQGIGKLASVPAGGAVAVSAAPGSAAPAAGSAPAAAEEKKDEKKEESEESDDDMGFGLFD
UniProt P78345: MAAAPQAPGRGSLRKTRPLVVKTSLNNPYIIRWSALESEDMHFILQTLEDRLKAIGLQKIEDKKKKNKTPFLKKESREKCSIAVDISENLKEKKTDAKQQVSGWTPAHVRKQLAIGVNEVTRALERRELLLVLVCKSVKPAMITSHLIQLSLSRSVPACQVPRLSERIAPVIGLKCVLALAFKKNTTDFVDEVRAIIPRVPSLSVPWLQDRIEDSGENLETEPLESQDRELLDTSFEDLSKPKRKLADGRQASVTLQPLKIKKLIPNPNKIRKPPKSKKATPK
UniProt Q92901: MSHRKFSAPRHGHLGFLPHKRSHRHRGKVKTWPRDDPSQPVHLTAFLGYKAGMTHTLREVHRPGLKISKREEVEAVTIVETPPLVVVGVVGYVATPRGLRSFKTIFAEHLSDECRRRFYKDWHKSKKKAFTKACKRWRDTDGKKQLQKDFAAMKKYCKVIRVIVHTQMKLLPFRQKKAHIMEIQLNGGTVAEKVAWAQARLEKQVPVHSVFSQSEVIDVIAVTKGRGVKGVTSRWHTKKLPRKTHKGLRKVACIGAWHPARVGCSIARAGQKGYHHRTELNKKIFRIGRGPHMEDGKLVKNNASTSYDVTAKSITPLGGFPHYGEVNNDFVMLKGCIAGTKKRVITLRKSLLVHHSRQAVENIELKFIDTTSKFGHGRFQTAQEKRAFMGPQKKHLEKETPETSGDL
UniProt Q8N122, whole entry, looked up: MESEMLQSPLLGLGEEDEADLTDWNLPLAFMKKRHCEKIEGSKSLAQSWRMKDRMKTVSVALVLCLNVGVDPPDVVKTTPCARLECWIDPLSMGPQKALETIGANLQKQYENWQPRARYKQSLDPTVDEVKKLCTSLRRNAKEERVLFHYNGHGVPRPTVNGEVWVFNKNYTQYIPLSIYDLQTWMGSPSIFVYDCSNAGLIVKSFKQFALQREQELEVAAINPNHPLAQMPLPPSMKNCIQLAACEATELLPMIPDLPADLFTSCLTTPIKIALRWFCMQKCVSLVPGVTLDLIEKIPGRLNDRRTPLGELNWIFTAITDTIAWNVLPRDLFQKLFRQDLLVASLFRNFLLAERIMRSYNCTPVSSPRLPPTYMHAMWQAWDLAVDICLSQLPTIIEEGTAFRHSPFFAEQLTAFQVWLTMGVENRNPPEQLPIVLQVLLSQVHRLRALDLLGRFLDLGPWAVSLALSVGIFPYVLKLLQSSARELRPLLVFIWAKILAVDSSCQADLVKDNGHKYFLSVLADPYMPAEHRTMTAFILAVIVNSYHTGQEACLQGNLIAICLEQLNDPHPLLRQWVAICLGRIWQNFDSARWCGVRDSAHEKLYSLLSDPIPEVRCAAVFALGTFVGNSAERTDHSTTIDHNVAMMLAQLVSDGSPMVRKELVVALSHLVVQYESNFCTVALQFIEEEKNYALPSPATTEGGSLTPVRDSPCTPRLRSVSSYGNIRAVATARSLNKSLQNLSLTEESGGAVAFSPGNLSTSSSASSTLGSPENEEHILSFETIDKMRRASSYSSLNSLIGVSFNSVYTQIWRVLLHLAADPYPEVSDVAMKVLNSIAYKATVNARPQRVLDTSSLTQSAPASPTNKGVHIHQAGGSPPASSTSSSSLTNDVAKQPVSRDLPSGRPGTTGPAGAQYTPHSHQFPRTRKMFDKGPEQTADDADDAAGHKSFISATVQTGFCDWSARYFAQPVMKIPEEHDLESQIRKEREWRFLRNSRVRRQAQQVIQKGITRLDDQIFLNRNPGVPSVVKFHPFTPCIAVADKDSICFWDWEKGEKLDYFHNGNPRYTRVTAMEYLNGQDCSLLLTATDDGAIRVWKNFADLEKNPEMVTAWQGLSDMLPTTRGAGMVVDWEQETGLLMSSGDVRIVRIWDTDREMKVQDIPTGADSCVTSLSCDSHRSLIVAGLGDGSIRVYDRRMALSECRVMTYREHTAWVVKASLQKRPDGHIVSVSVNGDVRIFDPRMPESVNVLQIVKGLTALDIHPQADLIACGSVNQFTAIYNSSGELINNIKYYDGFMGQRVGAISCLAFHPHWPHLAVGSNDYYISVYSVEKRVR
UniProt P13489: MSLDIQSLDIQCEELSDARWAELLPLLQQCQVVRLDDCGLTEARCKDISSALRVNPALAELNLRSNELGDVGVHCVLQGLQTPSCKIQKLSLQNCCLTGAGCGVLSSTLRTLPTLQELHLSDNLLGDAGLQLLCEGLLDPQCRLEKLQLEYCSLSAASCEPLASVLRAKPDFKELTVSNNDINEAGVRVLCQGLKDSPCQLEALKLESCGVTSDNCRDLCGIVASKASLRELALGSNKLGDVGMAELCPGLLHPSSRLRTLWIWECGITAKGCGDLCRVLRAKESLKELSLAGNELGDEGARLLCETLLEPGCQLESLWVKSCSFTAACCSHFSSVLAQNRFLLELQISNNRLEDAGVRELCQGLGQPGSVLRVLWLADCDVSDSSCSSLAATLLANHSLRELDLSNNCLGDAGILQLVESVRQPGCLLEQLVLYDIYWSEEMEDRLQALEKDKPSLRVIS
UniProt P27694, whole entry, looked up: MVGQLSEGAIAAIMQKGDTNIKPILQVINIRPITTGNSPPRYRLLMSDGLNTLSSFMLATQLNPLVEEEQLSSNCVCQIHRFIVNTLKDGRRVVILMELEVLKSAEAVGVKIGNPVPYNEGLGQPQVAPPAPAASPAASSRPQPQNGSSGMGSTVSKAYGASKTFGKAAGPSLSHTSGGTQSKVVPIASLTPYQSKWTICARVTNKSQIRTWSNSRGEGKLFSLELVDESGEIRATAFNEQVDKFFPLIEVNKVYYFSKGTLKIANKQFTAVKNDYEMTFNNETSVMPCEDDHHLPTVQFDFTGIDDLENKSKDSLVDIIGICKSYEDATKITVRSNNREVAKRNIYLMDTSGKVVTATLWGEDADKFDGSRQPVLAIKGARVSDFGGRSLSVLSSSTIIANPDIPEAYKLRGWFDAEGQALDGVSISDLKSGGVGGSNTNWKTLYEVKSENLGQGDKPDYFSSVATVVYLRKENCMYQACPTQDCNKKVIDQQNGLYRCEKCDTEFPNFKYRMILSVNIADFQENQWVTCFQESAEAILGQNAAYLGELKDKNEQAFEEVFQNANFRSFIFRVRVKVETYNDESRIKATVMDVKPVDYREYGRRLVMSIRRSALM
UniProt P78346: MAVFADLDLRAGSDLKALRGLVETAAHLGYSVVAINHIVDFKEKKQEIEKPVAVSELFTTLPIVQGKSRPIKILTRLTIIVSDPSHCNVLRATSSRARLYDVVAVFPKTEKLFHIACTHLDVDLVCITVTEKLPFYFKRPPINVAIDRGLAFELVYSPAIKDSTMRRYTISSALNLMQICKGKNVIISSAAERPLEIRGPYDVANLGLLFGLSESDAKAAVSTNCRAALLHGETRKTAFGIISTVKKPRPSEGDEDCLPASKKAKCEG
UniProt Q9H4A4: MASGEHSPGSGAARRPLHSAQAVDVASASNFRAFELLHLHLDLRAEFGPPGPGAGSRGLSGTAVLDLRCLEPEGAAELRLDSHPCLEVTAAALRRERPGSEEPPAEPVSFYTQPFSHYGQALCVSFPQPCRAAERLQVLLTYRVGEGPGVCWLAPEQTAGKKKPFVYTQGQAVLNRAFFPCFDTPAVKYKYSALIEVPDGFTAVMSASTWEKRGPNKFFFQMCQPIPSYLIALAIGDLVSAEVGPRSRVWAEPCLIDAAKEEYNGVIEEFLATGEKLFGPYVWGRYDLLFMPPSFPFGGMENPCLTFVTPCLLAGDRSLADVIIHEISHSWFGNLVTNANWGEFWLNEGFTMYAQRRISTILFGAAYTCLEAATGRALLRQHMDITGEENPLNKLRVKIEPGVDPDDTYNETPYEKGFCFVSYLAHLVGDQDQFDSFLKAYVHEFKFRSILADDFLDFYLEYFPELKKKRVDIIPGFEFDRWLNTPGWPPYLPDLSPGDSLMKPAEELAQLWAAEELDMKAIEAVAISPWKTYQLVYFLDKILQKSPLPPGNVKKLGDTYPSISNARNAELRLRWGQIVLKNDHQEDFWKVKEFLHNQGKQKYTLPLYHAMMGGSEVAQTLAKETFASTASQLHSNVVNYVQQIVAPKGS
UniProt P23443: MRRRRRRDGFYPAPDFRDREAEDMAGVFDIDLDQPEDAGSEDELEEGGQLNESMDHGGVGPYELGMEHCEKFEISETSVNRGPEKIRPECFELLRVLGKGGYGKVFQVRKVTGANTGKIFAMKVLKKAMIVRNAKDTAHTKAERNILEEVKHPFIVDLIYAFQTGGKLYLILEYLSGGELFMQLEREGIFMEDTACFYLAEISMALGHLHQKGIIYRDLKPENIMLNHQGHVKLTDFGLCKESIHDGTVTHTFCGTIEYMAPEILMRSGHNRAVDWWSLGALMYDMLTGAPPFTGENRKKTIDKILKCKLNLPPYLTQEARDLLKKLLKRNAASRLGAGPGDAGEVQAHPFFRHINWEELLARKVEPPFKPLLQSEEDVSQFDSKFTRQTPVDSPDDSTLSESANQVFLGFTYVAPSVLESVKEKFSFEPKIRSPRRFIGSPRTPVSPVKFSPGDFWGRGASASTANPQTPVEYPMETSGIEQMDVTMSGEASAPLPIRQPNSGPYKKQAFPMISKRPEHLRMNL
UniProt P10155: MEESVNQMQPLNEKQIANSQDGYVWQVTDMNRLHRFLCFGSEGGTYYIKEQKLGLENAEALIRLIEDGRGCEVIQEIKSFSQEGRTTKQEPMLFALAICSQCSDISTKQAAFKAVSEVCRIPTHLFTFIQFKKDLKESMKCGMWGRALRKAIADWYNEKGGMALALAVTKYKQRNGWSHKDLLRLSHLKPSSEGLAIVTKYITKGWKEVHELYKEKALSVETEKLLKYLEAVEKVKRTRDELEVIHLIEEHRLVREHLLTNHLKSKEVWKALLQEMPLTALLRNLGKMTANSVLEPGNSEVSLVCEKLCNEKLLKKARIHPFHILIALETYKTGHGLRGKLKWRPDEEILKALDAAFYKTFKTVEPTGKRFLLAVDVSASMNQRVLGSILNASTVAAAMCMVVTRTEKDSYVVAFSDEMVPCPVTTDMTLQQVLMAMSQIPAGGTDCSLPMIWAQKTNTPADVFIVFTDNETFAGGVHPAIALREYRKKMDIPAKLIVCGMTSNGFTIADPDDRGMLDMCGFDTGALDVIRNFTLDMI
UniProt Q15349, whole entry, looked up: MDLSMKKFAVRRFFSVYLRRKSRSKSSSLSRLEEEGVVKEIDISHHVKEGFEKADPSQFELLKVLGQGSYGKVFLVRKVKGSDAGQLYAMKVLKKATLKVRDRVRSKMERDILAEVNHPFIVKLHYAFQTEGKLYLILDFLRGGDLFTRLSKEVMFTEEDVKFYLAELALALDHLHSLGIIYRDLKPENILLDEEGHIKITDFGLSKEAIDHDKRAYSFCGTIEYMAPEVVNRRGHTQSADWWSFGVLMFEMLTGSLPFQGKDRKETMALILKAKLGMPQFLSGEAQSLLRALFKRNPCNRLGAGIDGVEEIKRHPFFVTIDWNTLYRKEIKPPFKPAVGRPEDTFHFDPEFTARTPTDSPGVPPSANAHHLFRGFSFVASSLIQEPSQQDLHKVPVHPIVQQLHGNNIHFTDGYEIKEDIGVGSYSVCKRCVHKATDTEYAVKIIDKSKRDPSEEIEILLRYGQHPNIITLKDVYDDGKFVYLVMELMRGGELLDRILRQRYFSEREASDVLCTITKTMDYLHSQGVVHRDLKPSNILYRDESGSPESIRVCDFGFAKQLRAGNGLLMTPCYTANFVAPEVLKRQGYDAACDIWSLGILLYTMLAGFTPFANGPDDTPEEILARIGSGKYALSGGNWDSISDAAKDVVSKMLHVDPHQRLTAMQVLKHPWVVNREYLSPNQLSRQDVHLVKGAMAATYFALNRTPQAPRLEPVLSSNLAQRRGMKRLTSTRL
UniProt O43148, whole entry, looked up: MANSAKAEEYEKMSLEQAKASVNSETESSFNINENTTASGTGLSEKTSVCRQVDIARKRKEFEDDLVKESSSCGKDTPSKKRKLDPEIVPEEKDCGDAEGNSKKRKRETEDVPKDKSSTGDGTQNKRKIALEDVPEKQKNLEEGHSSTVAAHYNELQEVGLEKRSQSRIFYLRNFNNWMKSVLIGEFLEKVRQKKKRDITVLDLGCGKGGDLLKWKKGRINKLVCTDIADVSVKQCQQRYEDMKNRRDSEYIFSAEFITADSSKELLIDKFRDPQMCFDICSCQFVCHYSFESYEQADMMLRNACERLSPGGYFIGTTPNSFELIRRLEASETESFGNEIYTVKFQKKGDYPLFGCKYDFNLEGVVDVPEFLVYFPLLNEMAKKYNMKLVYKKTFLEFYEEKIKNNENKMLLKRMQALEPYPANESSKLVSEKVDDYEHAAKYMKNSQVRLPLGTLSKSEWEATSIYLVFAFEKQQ

Each target was assayed with C#Cc1cccc(Nc2ncnc3cc(OCCOC)c(OCCOC)cc23)c1 [erlotinib] (assay: log2 fold change, soluble protein after heating vs DMSO (PISA); higher = thermal stabilisation; K562 cells, 10 uM, 30 min; active = over 0.2 and 3.5 SD of the protein, either way, in both replicates (recomputed)).
Outline: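 Values are thermal stability changes relative to control samples and are taken from duplicates. They are stated as log2 fold changes. Before quantification by TMTpro 16plex LC-MS/MS with equalised channel sums, K562 cells at 2×10^6 cells/mL were treated with 10 μM compound for 30 min, heated in aliquots for 3 min across 48°C-58°C, pooled, extracted in PBS with 0.5% NP-40 at 4°C, and centrifuged at 21,000xg for 90 min to give the soluble supernatant.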

log2 fold change, inactive:
RPLP2 (UniProt P05387) -0.331
RPP38 (UniProt P78345) 0.002
RPL29 (UniProt P47914) -0.409
RPL36 (UniProt Q9Y3U8) -0.379
RPS18 (UniProt P62269) -0.126
RPS3 (UniProt P23396) -0.136
RPL3L (UniProt Q92901) -0.376
RPTOR (UniProt Q8N122) -0.034
RPL10 (UniProt P27635) -0.321
RNH1 (UniProt P13489) -0.015
RPA1 (UniProt P27694) 0.003
RPP30 isoform 2 (UniProt P78346) -0.002
RPS6KA1 isoform 2 (UniProt Q15418) -0.032
RNPEP (UniProt Q9H4A4) 0.053
RPS6KB1 (UniProt P23443) 0.004
RPL18A (UniProt Q02543) -0.467
RO60 (UniProt P10155) -0.028
RPS3A (UniProt P61247) -0.178
RPS6KA2 isoform 2 (UniProt Q15349) 0.008
RPL28 (UniProt P46779) -0.372
RPS12 (UniProt P25398) -0.115
RPS6KC1 (UniProt Q96S38) 0.082
RNMT isoform 2 (UniProt O43148) -0.033

Seven neighbouring records out of the list so far, quoted:
log2 fold change, inactive:
RPS3 (UniProt P23396) -0.136
RPL3L (UniProt Q92901) -0.376
RPTOR (UniProt Q8N122) -0.034
RPL10 (UniProt P27635) -0.321
RNH1 (UniProt P13489) -0.015
RPA1 (UniProt P27694) 0.003
RPP30 isoform 2 (UniProt P78346) -0.002
